The text below walks through data of paper PMC10730134.

This experiment has as its target ILK5-cLUC. Briefly: split reporter; firefly split-luciferase complementation imaging (LCI); nLUC and cLUC constructs co-infiltrated with Agrobacterium GV3101 into 4 week-old N. benthamiana leaves; luminescence after 3 days with D-luciferin, low-light CCD camera.

Results are given in words; binding and its absence hold for the method and conditions named. In cells and extracts the contact can be indirect. Binding can be weak; no strength is given. Where a sequence is shown, tags or fusion partners need not be part of it.

B1: P2K1-nLUC (receptor, UniProt Q9LSR8 22-766)
chain: QQETSFVYESFLDRQNLYLDKSAIVLPSGLLQLTNASEHQMGHAFHKKPIEFSSSGPLSFSTHFVCALVPKPGFEGGHGIVFVLSPSMDFTHAESTRYLGIFNASTNGSSSYHVLAVELDTIWNPDFKDIDHNHVGIDVNSPISVAIASASYYSDMKGSNESINLLSGNPIQVWVDYEGTLLNVSVAPLEVQKPTRPLLSHPINLTELFPNRSSLFAGFSAATGTAISDQYILWWSFSIDRGSLQRLDISKLPEVPHPRAPHKKVSTLIILLPVCLAILVLAVLAGLYFRRRRKYSEVSETWEKEFDAHRFSYRSLFKATKGFSKDEFLGKGGFGEVYRGNLPQGREIAVKRVSHNGDEGVKQFVAEVVSMRCLKHRNLVPLFGYCRRKRELLLVSEYMPNGSLDEHLFDDQKPVLSWSQRLVVVKGIASALWYLHTGADQVVLHRDVKASNIMLDAEFHGRLGDFGMARFHEHGGNAATTAAVGTVGYMAPELITMGASTGTDVYAFGVFMLEVTCGRRPVEPQLQVEKRHMIKWVCECWKKDSLLDATDPRLGGKFVAEEVEMVMKLGLLCSNIVPESRPTMEQVVLYLNKNLPLPDFSPYTLGIGTFAPVLVDASSLVVSSASWSLSGPSMSSSSPNHSPYAWQSTDQPWGQTIDTKNSLHIVAEPEKPSPAVKMVTLPAEDPQSNHSSISSQRVQPVKREKRRLHQILVAFPWINKQYFKLGLPKHIVHVSLFFFLQLARL
B1: the binding entry is reported as “binds”.
